In PubChem BioAssay AID1347423 (Functional Genomics Laboratory (NCATS/FGL), 2020):
Hit rate of the full screen: of about 52,000 sequences, about 210 (0.4%) were called active.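 The calls were made as follows: active = gene whose silencing raises cell survival under the drug, median off-target-corrected z-score across its silencing RNAs 2 or more; inactive = the rest.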 The list shows a part of the results.

Assay: Resistance to Poly (ADP-Ribose) Polymerase inhibitor: Gene Identification via Genome-wide siRNA Screen
Conditions: mouse BRCA2 R2336H ES cells, olaparib, CellTiter-Glo viability; hits give high values
How it was run: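 Mouse BRCA2 R2336H ES cells were reverse-transfected with siRNA (20 nM final), treated at 48 h with 500 nM olaparib, and read by CellTiter-Glo after 72 h. Scores: MAD-based z per siRNA, median per gene, seed off-target correction.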

Row | Sequence | z-score
1 | GCAUAUUUCCGAGGAUCAATT against 9630046K23Rik | inactive: -0.355
2 | GGAGCUAUAUUCUCACCCATT against Ptpn1 | inactive: -0.83
3 | GGGAGCUCUCUACGAGAUUTT against Ever2 | inactive: -0.0879
4 | CCCAGGAGAUCCAUAUCAATT against BC023151 | inactive: 0.196
5 | GGAGCAUUGCCUUUUAAAGTT against Psph | inactive: 0.525
6 | CCUGGAUACCUUCAACUAUTT against Galnt14 | inactive: 0.715
7 | CCUUGUAGGAAAAAAGUCCTT against Zfp109 | inactive: 2.17
8 | GGAUUUGCUUCAACAUAGGTT against Ncf2 | inactive: -0.245
9 | GGAGGUAGAAAUAAAUACUTT against Sva | inactive: -2.18
10 | GAGGGCAUAAUGGUUUUUATT against Hist1h3c | inactive: 0.888
11 | GGCGGUGAAGACAUUGAAATT against Stxbp2 | inactive: 0.346
12 | GCUAACCAAGCUUGUGACATT against Adat1 | inactive: -1.14
13 | GGUAAAGACACAGAGCUGCTT against 1700051C09Rik | inactive: 1.18
14 | CGUAUGAGUGCAAUACUAATT against A030012M09Rik | inactive: 0.298
15 | GCUGUUAUUCAAGGAAUUCTT against 1700024C24Rik | inactive: -0.681
16 | GGGACUUUCCAGUGUAAAGTT against Npb | inactive: 0.366
17 | CCAAUCAACCCUCUAAGCATT against Nphp4 | inactive: -1.7
18 | GGACAAUUGUAAGGACAGATT against Slc1a6 | inactive: -1.36
19 | GGCAGAUGGCCGAAUUGAUTT against Rest | inactive: -0.479
20 | GGAACUGAUCUGGAAGAAUTT against Sdh1 | inactive: 1.28
21 | GGAAGAUGACCUCAUCCACTT against Tslpr | inactive: 0.45
22 | GGAGCACAUGCUCAAAAGATT against Pccb | inactive: 1.34
23 | GGUUGUGUAAUGAGACUGATT against Olfr914 | inactive: -3.12
24 | CCGCAUUUCAGACAUAGGCTT against Olfr415 | inactive: 0.486
25 | GCAGUAUAUACCCACUCGGTT against Stk17b | inactive: -0.117
26 | GGUGUGUGGUAGAAGACAATT against Lsamp | inactive: 0.17
27 | UCUGGAGUCUUAUCAAGGATT against 2210020M01Rik | inactive: -0.752
28 | CCUGAAUGGACAAACAGGATT against MGC129481 | inactive: -0.0933
29 | GGCUUGCAUAUCUAUUGGATT against Map2k6 | inactive: -0.819

Retrieved one by one from the list above, two records:
Row | Sequence | z-score
4 | CCCAGGAGAUCCAUAUCAATT against BC023151 | inactive: 0.196
26 | GGUGUGUGGUAGAAGACAATT against Lsamp | inactive: 0.17
